Patent US20240374523A1, “STABILIZED APILIMOD COMPOSITIONS AND USES THEREOF” (Orphai Therapeutics Inc., priority 2021, published 2024)
Some entries share one result that the patent states for a list of compounds. At least one structure is not confirmed: it was looked up by name or label, or the drawing left a doubt.

Assay: Kinetic solubility in FaSSGF (pH 1.6)
Method: Kinetic solubility studies were carried out on the various apilimod salts provided in Table 1 in Fasted State Simulated Gastric Fluid (FaSSGF) at pH 1.6 at ambient temperature. FaSSGF is a dissolution medium that has the average acidic pH and similar osmolarity of fasted gastric fluid. FaSSGF that can help reveal how an oral drug is likely to behave in the stomach after drinking a glass of water. The stability, solubility and dissolution data generated from testing in FaSSGF can help identify critical factors influencing a drug's absorption in the fasted state, and in turn facilitate the selection of the appropriate solid state and formulation approach for a drug.

## Cc1cccc(/C=N/Nc2cc(N3CCOCC3)nc(OCCc3ccccn3)n2)c1.Cc1cccc(/C=N/Nc2cc(N3CCOCC3)nc(OCCc3ccccn3)n2)c1.O=C(O)/C=C/C(=O)O [Hemi-fumarate]
FaSSGF pH 1.6, 1 hour stirring, ambient temperature
  dissolution observed: < 100%
FaSSGF pH 1.6, ambient temperature
  solubility in FaSSGF: ≤ 2000 µg/mL
